In PMC8539644:

Target: GerD–mScarlet-I (Bacillus cereus ATCC 14579)
Assay: FRET or BRET; sensitized emission (filter) FRET by wide-field fluorescence microscopy in single dormant B. cereus spores; donor SGFP2, acceptor mScarlet-I; normalized FRET (NFRET) corrected for bleed-through and cross-excitation

B1: SASP–SGFP2 (protein, UniProt P0A4F4 1-65)
chain: MSRSTNKLAVPGAESALDQMKYEIAQEFGVQLGADATARANGSVGGEITKRLVSLAEQQLGGYQK
Question: Which binding does the source give for B1 here?
Answer: Its binding is “no binding”.

Results are given in words; binding and its absence hold for the method and conditions named. Binding seen in cells or lysates may run through a third protein. Where a sequence is shown, tags or fusion partners need not be part of it.
